PubChem BioAssay AID602196 – INSERM – 2012
The whole screen tested about 23,000 reagents; below is a random part of them. Over the whole deposit, 455 (2%) are marked active. 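Active includes both protection and sensitisation; some change values fall well beyond the stated -50 to +50 range.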 Entries without a mark were called inactive. No sequences are given here. Not stated in the record: the amount of reagent.

- Test: 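Modifiers of cisplatin sensitivity in A549 cells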
- Cell system: human A549 lung cancer cells
- Knock-down reagent: siRNA pair against human genes
- Duration: 48 h transfection before cisplatin; time from cisplatin to read-out not stated
- Conditions: cisplatin at a dose killing half of control-siRNA cells; exact dose and duration not given
- Measured: 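Cisplatin cell death as a shift from the 50% death seen with control siRNA; siRNAs toxic or growth-blocking alone scored 0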
- Scale: two-siRNA summed score (-2 to +2): higher = both siRNAs protect from cisplatin killing; -2 means both sensitise; mean protection from cisplatin (shift in death) and protection from cisplatin (shift in death), siRNA C and protection from cisplatin (shift in death), siRNA D: higher = protection from cisplatin killing
- Rule for the call: 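siRNAs harmful alone (LDH or WST-1) get 0; others get +1 for less and -1 for more cisplatin killing; genes are active when the two siRNAs give the same sign, summing to ±2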
- Calls: active = both siRNAs shift cisplatin killing the same way; inactive = no consistent shift, or siRNA harmful alone

| Target gene | two-siRNA summed score (-2 to +2) | mean protection from cisplatin (shift in death) (%) | protection from cisplatin (shift in death), siRNA C (%) | protection from cisplatin (shift in death), siRNA D (%) |
| --- | --- | --- | --- | --- |
| STAT5B | 1 | 7.9 | 0.8 | 15 |
| NEU4 | 1 | 17.9 | 23.7 | 12.1 |
| LOC442053 | 0 | 11.7 | 6.7 | 16.8 |
| SDF2 | -1 | -2.1 | -29.2 | 25 |
| SETD3 | 0 | -0.4 | -7 | 6.3 |
| PKD2 | 0 | 12.4 | -5.3 | 30.2 |
| CELSR1 | 2 (active) | 18.6 | 22.8 | 14.3 |
| GCHFR | -1 | -7.4 | 2.1 | -16.8 |
| TRPM3 | 0 | 11.2 | 19.9 | 2.5 |
| CDH3 | -1 | -18.5 | -15.5 | -21.6 |
| RBM42 | -1 | -0.3 | -15.8 | 15.2 |
| KRT38 | 0 | -3.6 | -1.8 | -5.5 |
| LOC391004 | 1 | 15.5 | 13.2 | 17.8 |
| LOC400839 | 0 | 0.5 | -5.2 | 6.2 |
| LOC389369 | 0 | 26.1 | 41.1 | 11.1 |
| ZNF232 | 1 | 12 | 4.5 | 19.4 |
| TKT | 0 | 17.4 | 11.1 | 23.6 |
| CRYBA1 | 1 | 9.2 | -12.3 | 30.7 |
| ST20-AS1 | 0 | 5.1 | -1.5 | 11.7 |
| RARB | 0 | -3.5 | -13.9 | 7 |
| PRM2 | 0 | 9.7 | 9.4 | 10 |
| LOC440793 | 0 | 13.6 | 8.9 | 18.3 |
| CYP4Z1 | 0 | 2.1 | -1.7 | 5.8 |
| OTULINL | 0 | -4.3 | -2.7 | -5.8 |
| ZXDB | 0 | -0.5 | -5.1 | 4.1 |
| LOC339903 | 1 | 9.8 | 5 | 14.7 |
| PRELID3A | 0 | 8.9 | 10 | 7.8 |
| RAB28 | -1 | -13.9 | -0.9 | -26.9 |
| ZCWPW1 | 0 | 4.8 | 5.4 | 4.2 |
| FAR2 | 0 | 16.2 | 15.7 | 16.6 |
| LOC401620 | 0 | -2.4 | 6.6 | -11.4 |
| CBX7 | 1 | 15.5 | 29 | 2 |
| MEA1 | 0 | -14.9 | -8.2 | -21.7 |
| ABCA12 | 0 | -6.1 | -8.2 | -4 |
| DEAF1 | 0 | -1.7 | 3.9 | -7.3 |
| FABP1 | 0 | 2 | 5.9 | -1.9 |
| LOC340075 | 0 | -1 | -1.2 | -0.8 |
| LAMB3 | 0 | 11.5 | 15.9 | 7.1 |
| OTUD6B | 0 | 5.8 | 8.8 | 2.9 |

Active calls, of those listed so far:
| Target gene | two-siRNA summed score (-2 to +2) | mean protection from cisplatin (shift in death) (%) | protection from cisplatin (shift in death), siRNA C (%) | protection from cisplatin (shift in death), siRNA D (%) |
| --- | --- | --- | --- | --- |
| CELSR1 | 2 (active) | 18.6 | 22.8 | 14.3 |
